Measurements reported in PMC6790403 (International Journal of Nanomedicine, 2019).

Tested on: MDA-MB-231 cells
Assay: Cytotoxicity by MTT assay
Type: cell-based
Conditions: Homo sapiens

COc1cccc2c1C(=O)c1c(O)c3c(c(O)c1C2=O)C[C@@](O)(C(=O)CO)C[C@@H]3O[C@H]1C[C@H](N)[C@H](O)[C@H](C)O1 [DOX, (7S, 9S)-7-[(2R, 4S, 5S, 6S)-4-amino-5-hydroxy-6-methyloxan-2-yl]oxy-6,9,11-trihydroxy-9-(2-hydroxyacetyl)-4-methoxy-8,10-dihydro-7H-tetracene-5,12-dione]
IC50: 6.2 µM
